Reference: PubChem BioAssay AID328 (DTP/NCI, 2004)
Toxic doses and inconclusive results are not listed. The calls were made as follows: active = survival T/C of 150% or more; inactive = T/C below 125% in these data.

Test system: BDF1 mice, P388 leukemia ip, median survival T/C
Test: NCI In Vivo Anticancer Drug Screen. Data for tumor model P388 Leukemia (intraperitoneal) in B6D2F1 (BDF1) mice
Conditions: endpoint: median survival time, higher = longer survival
Method: The antitumor activity of compounds was measured in mice bearing transplantable tumors. Survival or tumor size were measured and the results are expressed as the measurement made in the treated group (T) divided by the measurement made in the vehicle treated control group (C). The tumor model used in this assay is P388 Leukemia (intraperitoneal) in B6D2F1 (BDF1) mice

Measured: T/C

COc1cc2c(c(OC)c1OC)-c1ccc(OC)c(=O)cc1[C@@H](N)CC2
inactive: dose: 0.25 mg/kg/injection, schedule: Q01DX010 (ip), vehicle: saline 109 % of control | dose: 0.5 mg/kg/injection, schedule: Q01DX010 (ip), vehicle: saline 113 % of control | dose: 0.6 mg/kg/injection, schedule: Q01DX009 (ip), vehicle: water 106 % of control | dose: 0.63 mg/kg/injection, schedule: Q01DX009 (ip), vehicle: Klucel (hydroxypropylcellulose) (HPC) 105 % of control | dose: 1.0 mg/kg/injection, schedule: Q01DX010 (ip), vehicle: saline 113 % of control | dose: 1.0 mg/kg/injection, schedule: Q01DX010 (ip), vehicle: water 115 % of control | dose: 1.25 mg/kg/injection, schedule: Q01DX009 (ip), vehicle: Klucel (hydroxypropylcellulose) (HPC) 109 % of control | dose: 2.0 mg/kg/injection, schedule: Q01DX010 (ip), vehicle: saline 122 % of control | dose: 2.5 mg/kg/injection, schedule: Q01DX009 (ip), vehicle: Klucel (hydroxypropylcellulose) (HPC) 119 % of control | dose: 2.5 mg/kg/injection, schedule: Q01DX009 (ip), vehicle: water 103 % of control | dose: 5.0 mg/kg/injection, schedule: Q01DX009 (ip), vehicle: Klucel (hydroxypropylcellulose) (HPC) 122 % of control
